Values quoted from earlier work in US6955873B1, “Diagnosis and treatment system for reward deficiency syndrome (RDS) and related behaviors” (priority 1999, dated 2005).
For at least one compound, name, drawing or mass did not settle the structure.

Key:
[1] = tested on: Blood Brain Barrier (BBB); details: mouse, in vivo; cited from earlier work
[2] = in vivo; cited from earlier work

For `OC[C@H]1O[C@@H](OCCc2ccc(O)cc2)[C@H](O)[C@@H](O)[C@@H]1O` [SAL, Salidosid], the “permeability of the Blood Brain Barrier for precursors of the catecholamines and serotonin” value [1] is given as “does not decrease”.

In the case of `CNC(=O)Oc1ccc2c(c1)[C@]1(C)CCN(C)[C@@H]1N2C` [physostigmine], the duration of action [2] is listed as 30 min.
